{
  "source": "the supplement of paper PMC7024190",
  "note": "This is one part of the list. This data set is noisy: repeats of one test often differ as much as different tests do.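 Human embryonic kidney cells were transiently transfected with a plasmid bearing a Renilla luciferase gene under the HSV-TK promoter. This first-round screen tests roughly ten thousand compounds for ones that increase reporter output.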",
  "data": [
    {"test_system": "HEK 293FT", "test": "log relative Renilla luciferase luminescence (reporter expression vs reference, reference not stated) (log (base not stated)); higher = higher recombinant reporter expression", "conditions": "10 µM; time after transfection 48 h", "protocol": "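HEK 293FT cells transiently transfected with pRL-TK (Renilla luciferase) were treated with compounds at 10 uM and luminescence was read about 42 h later. Values are log relative Renilla luminescence (log base and reference not stated). Single-pass screen; 2080 natural products library.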", "values": [
      {"smiles": "C/C(=C\\CC[C@@H](C)[C@H]1CC[C@@]2(C)C3=CC[C@H]4C(C)(C)C(=O)CC[C@]4(C)C3=CC[C@]12C)CO", "note": "[Ganoderol A]", "log": 0.0825},
      {"smiles": "CC(=O)Oc1cc(OC(C)=O)c2c(c1)OC(c1c(OC(C)=O)cccc1OC(C)=O)CC2=O", "note": "(stereo not given) [2',5,6',7-Tetraacetoxyflavanone]", "log": -0.337},
      {"smiles": "COc1cc(O)cc(O)c1C(C)=O", "note": "[2,4-Dihydroxy-6-methoxyacetophenone]", "log": 0.0981},
      {"smiles": "C[C@H]1C[C@@H]2OC(=O)[C@@H](CO)[C@@H]2[C@@H]1CO", "note": "[Gelsemiol]", "log": -0.199},
      {"smiles": "CC(=O)OC[C@H](O)[C@]1(C)C=C2CC[C@@H]3C(C)(C)[C@H](O[C@@H]4O[C@H](CO)[C@@H](O)[C@H](O)[C@H]4O)CC[C@@]3(C)[C@@H]2CC1", "note": "[Hythiemoside A]", "log": -0.203},
      {"smiles": "C=C(C)C(OC(C)=O)C(OC(C)=O)c1c(OC)ccc2ccc(=O)oc12", "note": "(stereo not given) [Murrangatin diacetate]", "log": -0.188},
      {"smiles": "COc1cc(O)c2c(c1)O[C@H](c1ccccc1)CC2=O", "note": "[Pinostrobin]", "log": -0.111},
      {"smiles": "CC1(C)OC(=O)C=C[C@]2(C)[C@H]3[C@@H](O)C[C@@]4(C)[C@H](c5ccoc5)OC(=O)[C@H]5O[C@]54[C@]3(C)C(=O)C[C@@H]12", "note": "[Zapoterin]", "log": 0.011},
      {"smiles": "C=C1CC[C@H]2O[C@]2(C)CC[C@@H]2[C@@H]1CC2(C)C", "note": "[Caryophyllene oxide]", "log": -0.167},
      {"smiles": "CCCCCCCCC=CCCCCCCCc1cc(O)cc(O)c1", "note": "(stereo in doubt) [5-(Z-heptadec-8-enyl) resorcinol]", "log": -0.083},
      {"smiles": "COc1cc2c(c(OC)c1OC)-c1c(cc3c(c1OC)OCO3)C[C@H](C)[C@](C)(O)C2", "note": "[Gomisin A]", "log": -0.42},
      {"smiles": "COc1cc([C@H]2c3cc(O)c(OC)cc3C[C@H]3[C@@H](OC)OC[C@H]23)ccc1O", "note": "[Formosanol]", "log": -0.443},
      {"smiles": "COc1ccc(C(C)=O)c(O)c1", "note": "[Paeonol]", "log": -0.276},
      {"smiles": "CC(=O)O[C@@H]1C[C@@]23C[C@@]24CC[C@H](O[C@@H]2OC[C@@H](O)[C@H](O)[C@H]2O)C(C)(C)[C@@H]4CC[C@H]3[C@]2(C)C[C@@H]3O[C@]4(C[C@@H](C)[C@@H]3[C@@]12C)O[C@H](O)[C@@]1(C)O[C@@H]41", "note": "[Actein]", "log": 0.0419},
      {"smiles": "C=C(C)[C@@H]1CC[C@]2(CO)CC[C@]3(C)[C@H](CC[C@@H]4[C@@]5(C)CC[C@H](O)C(C)(C)[C@@H]5CC[C@]43C)[C@@H]12", "note": "[Betulin]", "log": -0.0844},
      {"smiles": "O=C1c2c(O)cc(O)cc2O[C@H](c2ccccc2)[C@H]1O", "note": "[Pinobanksin]", "log": -0.184},
      {"smiles": "O=c1cc(-c2ccc(O)c(O)c2)oc2cc(O)cc(O)c12", "note": "[Luteolin]", "log": -0.306},
      {"smiles": "CC(=O)Oc1cc(O)c2c(c1)O[C@H](c1ccccc1)CC2=O", "note": "[Pinocembrin 7-acetate]", "log": -0.112},
      {"smiles": "CC1OC(OC2C(OCCc3ccc(O)c(O)c3)OC(CO)C(O)C2OC(=O)C=Cc2ccc(O)c(O)c2)C(O)C(O)C1O", "note": "(stereo not given) [Magnoloside A]", "log": -0.106},
      {"smiles": "CC[C@@]12CCCN3C(=O)C=C(c4ccccc4NC(=O)CC1)[C@]32O", "note": "[Leuconolam]", "log": 0.0171},
      {"smiles": "COc1ccc2ccc(=O)oc2c1CC=C(C)C", "note": "[Osthol]", "log": 0.205},
      {"smiles": "C=C1C(=O)[C@]23[C@H](O)[C@H]1CC[C@H]2[C@@]12CO[C@@]3(O)[C@@H](O)[C@@H]1[C@](C)(COC(C)=O)CC[C@H]2O", "note": "[Xerophilusin G]", "log": -0.028},
      {"smiles": "C=CC(C)(C)c1c(O)cc2oc3c(CC=C(C)C)c(O)c(O)cc3c(=O)c2c1O", "note": "[Cudraxanthone L]", "log": 0.151},
      {"smiles": "CC1(C)[C@H](O)CC[C@@]2(C)[C@@H]3CC[C@](C)([C@@H](O)CO)C=C3[C@@H](O)C[C@H]12", "note": "[7-Hydroxydarutigenol]", "log": -0.222},
      {"smiles": "C=C(C)[C@H](/C=C/[C@@H](C)[C@H]1CC[C@H]2[C@@H]3CC=C4C[C@@H](O[C@@H]5O[C@H](CO)[C@@H](O)[C@H](O)[C@H]5O)CC[C@]4(C)[C@H]3CC[C@]12C)CC", "note": "[22-Dehydroclerosterol glucoside]", "log": -0.0248},
      {"smiles": "COC(=O)CCC(C)=O", "note": "[Methyl levulinate]", "log": 0.0279},
      {"smiles": "COc1ccc(-c2cc(=O)c3c(O)cc(O)c(-c4cc(-c5cc(=O)c6c(O)cc(OC)cc6o5)ccc4OC)c3o2)cc1", "note": "[Sciadopitysin]", "log": -0.466},
      {"smiles": "O=C(O)c1ccccc1", "note": "[Benzoic acid]", "log": -0.117},
      {"smiles": "CC(=O)O[C@H]1[C@H](OC(C)=O)[C@]2(C)O[C@]3(CC[C@]2(C)[C@H]2[C@H](OC(=O)C(C)C)CC=C(C)[C@]12C)COC(=O)C3", "note": "[Scutebata E]", "log": 0.117},
      {"smiles": "CC1C(=O)C23CC1CCC2C1(COC3=O)C(=O)C=CC(C)(C)C1C=O", "note": "(stereo not given) [Epieriocalyxin A]", "log": -0.0106},
      {"smiles": "COc1cc2c(c(OC)c1OC)-c1c(cc(OC)c(OC)c1OC)C[C@](C)(O)[C@@H](C)C2", "note": "[Schizandrin]", "log": -0.0903},
      {"smiles": "CCCCCCCCCCCCCCCCCCCCCCCCCCCCOC(=O)/C=C/c1ccc(O)c(OC)c1", "note": "[Octacosyl (E)-ferulate]", "log": -0.0729},
      {"smiles": "COC(=O)C(C)CCc1c[nH]c2ccccc12", "note": "(stereo not given) [Paniculidine A]", "log": -0.181},
      {"smiles": "C=C(C(=O)O)[C@@H]1CC[C@@]2(C)CCCC(=C)[C@]2(O)C1", "note": "[5alpha-Hydroxycostic acid]", "log": -0.071},
      {"smiles": "CO[C@H]1[C@H](O)[C@@H](O)[C@@H](O)[C@H](O)[C@@H]1O", "note": "[D-Pinitol]", "log": -0.215},
      {"smiles": "O=C(O)c1ccc(O)cc1", "note": "[4-Hydroxybenzoic acid]", "log": 0.0425},
      {"smiles": "C[C@@H]1C(=O)O[C@@H]2C[C@@]3(C)O[C@@H]3C[C@H](O)[C@@]3(C)O[C@@H]3C[C@H]12", "note": "[Carabrolactone A]", "log": -0.0479},
      {"smiles": "O=C1c2c(O)cc(O)cc2OC1(O)Cc1cc(O)c(O)c(O)c1", "note": "(stereo not given) [Amaronol A]", "log": 0.0294},
      {"smiles": "CC(=O)c1cc2c(cc1O)OC(C)(C)C=C2", "note": "[Eupatoriochromene]", "log": -0.109},
      {"smiles": "COC(=O)C[C@H](O)C(=O)O", "note": "[Malic acid 4-Me ester]", "log": -0.17}
    ]}
  ]
}
